The experiment in a line: Sucrose density-gradient fractionation of Przemko latex with exogenous alkaloid. To be noted: exogenous alkaloid (420-460 mM) added to 80 µL Przemko latex, 14-66% sucrose gradient. Also on record: species or system Papaver somniferum.

Consider `CN1CC[C@]23c4c5ccc(O)c4O[C@H]2[C@@H](O)C=C[C@H]3[C@H]1C5` [Morphine, morphine], for which the “formation of dense aggregate bands in gradient” value is listed as “higher-density material was not observed”.

The values are drawn from publication PMC9646721, “Alkaloid binding to opium poppy major latex proteins triggers structural modification and functional aggregation” (Nature Communications, 2022).
